{"source": "PubChem BioAssay AID493246 (Drosophila RNAi Screening Center, 2011)", "assay": "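Genome-wide search for dsRNAs that reduce cell number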 (primary screen)", "cell system": "Drosophila Kc and S2R+ cells", "reagents": "long dsRNA against Drosophila genes", "measurement": "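Raw, unnormalised count of remaining cells in each well; per-plate z-scores of cell number underlie the calls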", "reading the numbers": "Kc cell number and S2R+ cell number: higher = more cells remaining", "call rule": "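Active when the per-plate z-score of cell number is 3 or more in the direction of fewer cells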", "note": "The deposit covers about 21,000 reagents; this is an unselected part of those with a known target gene and a result. In the full data, 429 (2%) got an active call. 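Values are raw and not normalised between plates; calls rest on per-plate z-scores that were not deposited.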 The numbers tell different reagents against one gene apart. Names joined by + are all predicted targets of the reagent. No sequences are given here. Not stated in the record: the amount of reagent, the time to read-out."}
{"target":"CG31371 (GeneID 43626)","dsRNA no.":1,"Kc cell number, rep 1":1.46e6,"Kc cell number, rep 2":1.47e6,"S2R+ cell number, rep 1":9.99e5,"S2R+ cell number, rep 2":1.06e6,"call":"inactive"}
{"target":"CG13097 (GeneID 34184)","dsRNA no.":1,"Kc cell number, rep 1":8.94e5,"Kc cell number, rep 2":8.47e5,"S2R+ cell number, rep 1":6.50e5,"S2R+ cell number, rep 2":5.82e5,"call":"active"}
{"target":"mgr (GeneID 41365)","dsRNA no.":1,"Kc cell number, rep 1":1.47e6,"Kc cell number, rep 2":1.44e6,"S2R+ cell number, rep 1":1.27e6,"S2R+ cell number, rep 2":1.27e6,"call":"inactive"}
{"target":"Lkr (GeneID 38622)","dsRNA no.":1,"Kc cell number, rep 1":1.46e6,"Kc cell number, rep 2":1.92e6,"S2R+ cell number, rep 1":1.13e6,"S2R+ cell number, rep 2":1.15e6,"call":"inactive"}
{"target":"CG3706 (GeneID 53540)","dsRNA no.":1,"Kc cell number, rep 1":1.66e6,"Kc cell number, rep 2":1.76e6,"S2R+ cell number, rep 1":1.10e6,"S2R+ cell number, rep 2":1.22e6,"call":"inactive"}
{"target":"ap (GeneID 35509)","dsRNA no.":1,"Kc cell number, rep 1":1.42e6,"Kc cell number, rep 2":1.47e6,"S2R+ cell number, rep 1":1.01e6,"S2R+ cell number, rep 2":1.10e6,"call":"inactive"}
{"target":"CG31279 (GeneID 318657)","dsRNA no.":1,"Kc cell number, rep 1":1.42e6,"Kc cell number, rep 2":1.50e6,"S2R+ cell number, rep 1":1.01e6,"S2R+ cell number, rep 2":1.11e6,"call":"inactive"}
{"target":"flw (GeneID 44289)","dsRNA no.":1,"Kc cell number, rep 1":1.65e6,"Kc cell number, rep 2":1.64e6,"S2R+ cell number, rep 1":1.04e6,"S2R+ cell number, rep 2":1.15e6,"call":"inactive"}
{"target":"flw (GeneID 44289)","dsRNA no.":2,"Kc cell number, rep 1":1.55e6,"Kc cell number, rep 2":1.50e6,"S2R+ cell number, rep 1":9.57e5,"S2R+ cell number, rep 2":1.08e6,"call":"inactive"}
{"target":"Mgat2 (GeneID 43563)","dsRNA no.":1,"Kc cell number, rep 1":4.92e5,"S2R+ cell number, rep 1":7.96e5,"call":"inactive"}
{"target":"nAChRbeta1 (GeneID 38545)","dsRNA no.":1,"Kc cell number, rep 1":1.58e6,"Kc cell number, rep 2":1.57e6,"S2R+ cell number, rep 1":1.00e6,"S2R+ cell number, rep 2":1.22e6,"call":"inactive"}
{"target":"nAChRbeta1 (GeneID 38545)","dsRNA no.":2,"Kc cell number, rep 1":1.67e6,"Kc cell number, rep 2":1.75e6,"S2R+ cell number, rep 1":1.37e6,"S2R+ cell number, rep 2":1.06e6,"call":"inactive"}
{"target":"CG34133 (GeneID 318566)","dsRNA no.":1,"Kc cell number, rep 1":4.56e5,"S2R+ cell number, rep 1":8.17e5,"call":"inactive"}

Continued (2 carried over from the part before).
{"target":"nAChRbeta1 (GeneID 38545)","dsRNA no.":2,"Kc cell number, rep 1":1.67e6,"Kc cell number, rep 2":1.75e6,"S2R+ cell number, rep 1":1.37e6,"S2R+ cell number, rep 2":1.06e6,"call":"inactive"}
{"target":"CG34133 (GeneID 318566)","dsRNA no.":1,"Kc cell number, rep 1":4.56e5,"S2R+ cell number, rep 1":8.17e5,"call":"inactive"}
{"target":"Coq4 + Gorab + frc","dsRNA no.":1,"Kc cell number, rep 1":1.51e6,"Kc cell number, rep 2":1.64e6,"S2R+ cell number, rep 1":1.31e6,"S2R+ cell number, rep 2":1.51e6,"call":"inactive"}
{"target":"Hmx (GeneID 42110)","dsRNA no.":1,"Kc cell number, rep 1":1.35e6,"Kc cell number, rep 2":1.48e6,"S2R+ cell number, rep 1":1.36e6,"S2R+ cell number, rep 2":1.53e6,"call":"inactive"}
{"target":"Hmx (GeneID 42110)","dsRNA no.":2,"Kc cell number, rep 1":1.57e6,"Kc cell number, rep 2":1.64e6,"S2R+ cell number, rep 1":9.31e5,"S2R+ cell number, rep 2":9.63e5,"call":"inactive"}
{"target":"CG4631 (GeneID 34988)","dsRNA no.":1,"Kc cell number, rep 1":1.50e6,"Kc cell number, rep 2":1.53e6,"S2R+ cell number, rep 1":1.11e6,"S2R+ cell number, rep 2":1.20e6,"call":"inactive"}
{"target":"Trpgamma (GeneID 34991)","dsRNA no.":1,"Kc cell number, rep 1":1.50e6,"Kc cell number, rep 2":1.65e6,"S2R+ cell number, rep 1":1.18e6,"S2R+ cell number, rep 2":1.31e6,"call":"inactive"}
{"target":"Cdc27 (GeneID 38798)","dsRNA no.":1,"Kc cell number, rep 1":1.24e6,"Kc cell number, rep 2":1.34e6,"S2R+ cell number, rep 1":7.05e5,"S2R+ cell number, rep 2":7.36e5,"call":"active"}
{"target":"SMSr (GeneID 38823)","dsRNA no.":1,"Kc cell number, rep 1":1.49e6,"Kc cell number, rep 2":1.53e6,"S2R+ cell number, rep 1":1.26e6,"S2R+ cell number, rep 2":1.21e6,"call":"inactive"}
{"target":"SMSr (GeneID 38823)","dsRNA no.":2,"Kc cell number, rep 1":1.58e6,"Kc cell number, rep 2":1.46e6,"S2R+ cell number, rep 1":1.08e6,"S2R+ cell number, rep 2":1.11e6,"call":"inactive"}
